In the supplement of paper PMC12889115:
Some of the results follow. Values are raw readings; no control value is given beside them.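 Primary screen: polymyxin B was added at a level permeabilizing Salmonella outer membranes while sparing inner membranes. DMSO wells, both with and without polymyxin B, established maximum growth. Plate-to-plate variation meant each plate was ranked on its own, and the lowest-OD600 compounds were selected as hits.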

Tested on: Salmonella enterica serovar Typhimurium SL1344
Experiment: bacterial growth OD600 after 18 h with compound and polymyxin B; higher = more bacterial growth (less inhibition)
Details: 50 µM, Mueller-Hinton broth

SMILES	bacterial growth OD600 (polymyxin B 0.75 µg/mL)	bacterial growth OD600 (polymyxin B 1 µg/mL)
COc1ccccc1CCNc1nc(CN(C)C(C)c2ccon2)nc2ccccc12 (centres undefined)	0.822	–
CN(CCc1ccccc1)C(=O)CC1(c2ccccc2)CC(=O)N(Cc2ccc3c(c2)OCO3)C1=O (centres undefined)	0.001	–
OC(Cc1ccccc1)c1ccc2c(c1)CN(Cc1cccs1)CCO2 (centres undefined)	0.683	–
COc1ccc(F)c(CC2(CCC(=O)N(C)Cc3ccc(C)cc3)CCC(=O)N2)c1 (centres undefined)	0.814	–
COCCN1CC(C(=O)NCCc2nc(C)c3c(n2)CCC3)CCC1=O (centres undefined)	–	0.905
COc1ccc(CC(=O)NCC2CCCN(C(=O)c3cc(CC(C)C)n[nH]3)C2)cc1 (centres undefined)	–	0.884
O=C1NCCN(C/C=C/c2ccccc2)C1CC(=O)N1CCCCO1 (centres undefined)	–	0.705
O=C(/C=C/c1ccccc1Cl)NCC1CCC2(CCN(Cc3ccccc3F)CC2)O1 (centres undefined)	0.671	–
COc1cc2nc(-c3cc4c(c(OC)c3)OCCN(C(=O)C3CCCCC3)C4)cc(C)c2cc1OC	0.926	–
COc1ccc(F)c(CC2(CCC(=O)N3CCOc4ccc(Cl)cc4C3)CCC(=O)N2)c1 (centres undefined)	0.836	–
CCOC(=O)N1CCC(NC2CCN(c3ccc(NC(=O)Cc4ccc(OC)cc4)cc3)CC2)CC1	0.83	–
COc1ccc(C2c3[nH]c4ccccc4c3CCN2Cc2cnn(C)c2)c(F)c1 (centres undefined)	–	0.773
COCc1ccc(CN2CCN(c3nc(-c4ccccc4)nc4c3CCC4)CC2)o1	–	0.763
CCOC(=O)C1(Cc2cccc(OC)c2)CCCN(C2CSCCSC2)C1 (centres undefined)	–	0.822
CCN1CCN(C(=O)c2ccc(N3CCC(NCc4cccc(OC(F)(F)F)c4)CC3)cc2)CC1	0.992	–
CCCC1(C2CCN(C/C=C/c3ccco3)CC2)NC(=O)N(CCC2CCCN2C)C1=O (centres undefined)	0.763	–
CCN1CCN(C2(C(=O)NCCCn3nc(C)cc3C)Cc3ccccc3C2)CC1	0.826	–
CCOc1ccc(CN2CCN(Cc3cnc(C)s3)CC2CCO)cc1 (centres undefined)	–	0.905
CCn1ccnc1CNC(=O)CC(c1ccccc1)c1ccc(Cl)cc1 (centres undefined)	–	0.545
CC(=O)c1cc(C(=O)N2CCCC(CCc3ccccc3C)C2)[nH]n1 (centres undefined)	–	0.024
CC(C)OCCCNc1nc(CN2CCCCC2c2nccs2)nc2ccc(Cl)cc12 (centres undefined)	0.676	–
CCN1CCC(C(=O)N(CC)CC2CCCN(CCc3cccc(F)c3)C2)CC1 (centres undefined)	–	0.95
Fc1ccccc1-c1cnnc(NCC2(N3CCOCC3)CCCCCC2)n1	–	1.02
CN(Cc1ccccc1)c1ncccc1CNC(=O)Nc1ccccc1F	0.133	–
CC(=O)c1cc(CN2CCC(CCC(=O)Nc3ccccc3Cl)CC2)cs1	–	0.735
COCCC(=O)N1CCCC(CCc2cccc(OC)c2)C1 (centres undefined)	0.8	–
O=C(NCc1ccccn1)C1CCN(C2CCN(C3CCCCCC3)CC2)CC1	–	0.769
Cc1ccc(N2CCN(C(=O)c3cn(Cc4ccccc4F)nn3)CC2)cc1	–	0.911
CN(CCC1CCCCO1)C(=O)CC1(c2ccccc2Cl)CC(=O)N(C2CCCC2)C1=O (centres undefined)	0.002	–

Individual results from the results shown:
bacterial growth OD600 (polymyxin B 0.75 µg/mL) with `CN(CCC1CCCCO1)C(=O)CC1(c2ccccc2Cl)CC(=O)N(C2CCCC2)C1=O` (centres undefined) reads 0.002
bacterial growth OD600 (polymyxin B 0.75 µg/mL) with `CCN1CCN(C2(C(=O)NCCCn3nc(C)cc3C)Cc3ccccc3C2)CC1` reads 0.826
